Experimental data as given in the supplement of paper PMC7661543.
The effect of the compound repeats well; differences between the knockouts mostly do not.

Tested on: MDA-MB-231
Test: relative cell number vs DMSO control (72 h) (% of DMSO); higher = less growth inhibition (more cells)
Experimental: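 QMAP-Seq: a pool of 5 breast cancer cell lines (ZR-75-1, SKBR3, HCC-38, MDA-MB-231, BT-20), each carrying 12 doxycycline-inducible Cas9 sgRNA perturbations (11 knockouts plus non-targeting sgNT), was treated with compounds for 72 h at four 10-fold doses (10 nM-10 uM or 1 nM-1 uM range). Barcodes were amplified and sequenced, and cell number was interpolated from 293T spike-in standard curves. The result is expressed as % of the median of DMSO wells. Two biological replicates.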

COc1cc2nccc(Oc3ccc(NC(=O)C4(C(=O)Nc5ccc(F)cc5)CC4)cc3)c2cc1OC [Cabozantinib]
Settings	relative cell number
sgRNA knockout: sgATF3, 10 nM	102
sgRNA knockout: sgATF3, 100 nM	117
sgRNA knockout: sgATF3, 1000 nM	113
sgRNA knockout: sgATF3, 10000 nM	37.3
sgRNA knockout: sgATF4, 10 nM	148
sgRNA knockout: sgATF4, 100 nM	91.9
sgRNA knockout: sgATF4, 1000 nM	83.6
sgRNA knockout: sgATF4, 10000 nM	44.2
sgRNA knockout: sgATF6, 10 nM	103
sgRNA knockout: sgATF6, 100 nM	94.8
sgRNA knockout: sgATF6, 1000 nM	113
sgRNA knockout: sgATF6, 10000 nM	30.7
sgRNA knockout: sgATG7, 10 nM	91.8
sgRNA knockout: sgATG7, 100 nM	81.1
sgRNA knockout: sgATG7, 1000 nM	101
sgRNA knockout: sgATG7, 10000 nM	26.6
sgRNA knockout: sgERN1, 10 nM	108
sgRNA knockout: sgERN1, 100 nM	106
sgRNA knockout: sgERN1, 1000 nM	97.51
sgRNA knockout: sgERN1, 10000 nM	37.2
sgRNA knockout: sgHSF1, 10 nM	98.4
sgRNA knockout: sgHSF1, 100 nM	122
sgRNA knockout: sgHSF1, 1000 nM	102
sgRNA knockout: sgHSF1, 10000 nM	42
sgRNA knockout: sgHSF2, 10 nM	82.7
sgRNA knockout: sgHSF2, 100 nM	125
sgRNA knockout: sgHSF2, 1000 nM	119
sgRNA knockout: sgHSF2, 10000 nM	40
sgRNA knockout: sgKEAP1, 10 nM	82.7
sgRNA knockout: sgKEAP1, 100 nM	93.3
sgRNA knockout: sgKEAP1, 1000 nM	80.5
sgRNA knockout: sgKEAP1, 10000 nM	40.5
sgRNA knockout: sgNFE2L2, 10 nM	92.1
sgRNA knockout: sgNFE2L2, 100 nM	90.2
sgRNA knockout: sgNFE2L2, 1000 nM	110
sgRNA knockout: sgNFE2L2, 10000 nM	31.8
sgRNA knockout: sgSLC35F2, 10 nM	97
sgRNA knockout: sgSLC35F2, 100 nM	93.9
sgRNA knockout: sgSLC35F2, 1000 nM	90.3
sgRNA knockout: sgSLC35F2, 10000 nM	38.7
sgRNA knockout: sgXBP1, 10 nM	107
sgRNA knockout: sgXBP1, 100 nM	75.9
sgRNA knockout: sgXBP1, 1000 nM	103
sgRNA knockout: sgXBP1, 10000 nM	37.2

CC(C)C[C@H](NC(=O)[C@H](CCc1ccccc1)NC(=O)CN1CCOCC1)C(=O)N[C@@H](Cc1ccccc1)C(=O)N[C@@H](CC(C)C)C(=O)[C@@]1(C)CO1 [Carfilzomib]
Settings	relative cell number
sgRNA knockout: sgATF3, 1 nM	74.8
sgRNA knockout: sgATF3, 10 nM	71
sgRNA knockout: sgATF3, 100 nM	15.8
sgRNA knockout: sgATF3, 1000 nM	7.54
sgRNA knockout: sgATF4, 1 nM	57.6
sgRNA knockout: sgATF4, 10 nM	44.9
sgRNA knockout: sgATF4, 100 nM	16.9
sgRNA knockout: sgATF4, 1000 nM	8.68
sgRNA knockout: sgATF6, 1 nM	101
sgRNA knockout: sgATF6, 10 nM	73.4
sgRNA knockout: sgATF6, 100 nM	18.2
sgRNA knockout: sgATF6, 1000 nM	5.68
sgRNA knockout: sgATG7, 1 nM	108
sgRNA knockout: sgATG7, 10 nM	52.6
sgRNA knockout: sgATG7, 100 nM	10.5
sgRNA knockout: sgATG7, 1000 nM	9.24
sgRNA knockout: sgERN1, 1 nM	83
sgRNA knockout: sgERN1, 10 nM	58.4
sgRNA knockout: sgERN1, 100 nM	13.2
sgRNA knockout: sgERN1, 1000 nM	5.84
sgRNA knockout: sgHSF1, 1 nM	68.6
sgRNA knockout: sgHSF1, 10 nM	47.9
sgRNA knockout: sgHSF1, 100 nM	14.4
sgRNA knockout: sgHSF1, 1000 nM	5.92
sgRNA knockout: sgHSF2, 1 nM	78.5
sgRNA knockout: sgHSF2, 10 nM	43.2
sgRNA knockout: sgHSF2, 100 nM	12.4
sgRNA knockout: sgHSF2, 1000 nM	6.5
sgRNA knockout: sgKEAP1, 1 nM	73.6
sgRNA knockout: sgKEAP1, 10 nM	67.4
sgRNA knockout: sgKEAP1, 100 nM	16.4
sgRNA knockout: sgKEAP1, 1000 nM	8.63
sgRNA knockout: sgNFE2L2, 1 nM	77.4
sgRNA knockout: sgNFE2L2, 10 nM	45.7
sgRNA knockout: sgNFE2L2, 100 nM	12
sgRNA knockout: sgNFE2L2, 1000 nM	6.44
sgRNA knockout: sgSLC35F2, 1 nM	74.8
sgRNA knockout: sgSLC35F2, 10 nM	55.9
sgRNA knockout: sgSLC35F2, 100 nM	25.3
sgRNA knockout: sgSLC35F2, 1000 nM	18.7
sgRNA knockout: sgXBP1, 1 nM	90.7
sgRNA knockout: sgXBP1, 10 nM	56.6
sgRNA knockout: sgXBP1, 100 nM	11
sgRNA knockout: sgXBP1, 1000 nM	5.85

N.N.[Cl][Pt][Cl] [Cisplatin]
Settings	relative cell number
sgRNA knockout: sgATF3, 10 nM	97.6
sgRNA knockout: sgATF3, 100 nM	81.5
sgRNA knockout: sgATF3, 1000 nM	114
sgRNA knockout: sgATF3, 10000 nM	111.9
sgRNA knockout: sgATF4, 10 nM	118
sgRNA knockout: sgATF4, 100 nM	67
sgRNA knockout: sgATF4, 1000 nM	103
sgRNA knockout: sgATF4, 10000 nM	138
sgRNA knockout: sgATF6, 10 nM	118.9
sgRNA knockout: sgATF6, 100 nM	86.1
sgRNA knockout: sgATF6, 1000 nM	106
sgRNA knockout: sgATF6, 10000 nM	87.4
sgRNA knockout: sgATG7, 10 nM	106
sgRNA knockout: sgATG7, 100 nM	89.5
sgRNA knockout: sgATG7, 1000 nM	117
sgRNA knockout: sgATG7, 10000 nM	84.4
sgRNA knockout: sgERN1, 10 nM	105
sgRNA knockout: sgERN1, 100 nM	86
sgRNA knockout: sgERN1, 1000 nM	147
sgRNA knockout: sgERN1, 10000 nM	94
sgRNA knockout: sgHSF1, 10 nM	85.3
sgRNA knockout: sgHSF1, 100 nM	79.7
sgRNA knockout: sgHSF1, 1000 nM	113
sgRNA knockout: sgHSF1, 10000 nM	85
sgRNA knockout: sgHSF2, 10 nM	101
sgRNA knockout: sgHSF2, 100 nM	81.5
sgRNA knockout: sgHSF2, 1000 nM	105
sgRNA knockout: sgHSF2, 10000 nM	122
sgRNA knockout: sgKEAP1, 10 nM	105
sgRNA knockout: sgKEAP1, 100 nM	93.4
sgRNA knockout: sgKEAP1, 1000 nM	113
sgRNA knockout: sgKEAP1, 10000 nM	101
sgRNA knockout: sgNFE2L2, 10 nM	105
sgRNA knockout: sgNFE2L2, 100 nM	73.9
sgRNA knockout: sgNFE2L2, 1000 nM	98.1
sgRNA knockout: sgNFE2L2, 10000 nM	108
sgRNA knockout: sgSLC35F2, 10 nM	89.7
sgRNA knockout: sgSLC35F2, 100 nM	83.4
sgRNA knockout: sgSLC35F2, 1000 nM	95.91
sgRNA knockout: sgSLC35F2, 10000 nM	82.2
sgRNA knockout: sgXBP1, 10 nM	113
sgRNA knockout: sgXBP1, 100 nM	85.57
sgRNA knockout: sgXBP1, 1000 nM	99.5
sgRNA knockout: sgXBP1, 10000 nM	83.7
